We go through 69 compounds from the supplement of paper PMC4683952.

Some of the results follow. Cut-off read from the data, not from the text of the source: active = 2 or more and inactive = the rest. Single values are uncertain here, since repeats match poorly.

The assay has as its system Lgr5 (MarsCy1-Lgr5-EGFP, U2OS). The assay is described as follows: cell-surface Lgr5 expression (SCi1 fluorescence, background-subtracted) relative to WT DMSO (fold of DMSO control); higher = more Lgr5 at the plasma membrane. The following applies: U2OS MarsCy1-Lgr5-EGFP stable; treatment time: overnight; library: ActiProbe-5K (TimTec); 25 µM.
In the case of `OCc1cc(-c2cccs2)no1`, the “cell-surface Lgr5 expression” value was inactive: 0.913.
As for `Cc1cc(=O)nc(SCC(N)=O)[nH]1`, the “cell-surface Lgr5 expression” value is inactive: 1.15.
As for `Cc1cc(C)n(NC(=O)CCn2ncc(Br)c2C)c(=O)c1`, the “cell-surface Lgr5 expression” value was inactive: 1.12.
Next, `CCc1nc(C#N)c(N2CCOCC2)o1`: inactive: 1.21; `CSc1snc(OC(C)C)c1C#N`: inactive: 1.06.
As for `C(=N\n1cnnc1)/c1c[nH]c2ccccc12`, the “cell-surface Lgr5 expression” value is inactive: 1.1.
As for `Cc1cc(C)[n+](F)c(C)c1.O=S(=O)([O-])C(F)(F)F`, the “cell-surface Lgr5 expression” value was inactive: 1.06.
In the case of `CCn1ncc(S(=O)(=O)NCCCn2cc(Cl)cn2)c1C` it was inactive: 1.2; in that of `CC1Cn2c(nnc2-c2cc3ccccc3cc2O)S1` (centres undefined), inactive: 1.01.
For the compound `Nc1ccc(Cl)c(-c2nc3cc(Cl)ccc3o2)c1`, the “cell-surface Lgr5 expression” value is inactive: 1.14.
In the case of `Cc1cc(C)c2c(c1C)OC/C2=N\O` it was inactive: 1.13; in that of `Cc1cc(C)c2nc(Cl)cc(C)c2c1`, inactive: 1.36; in that of `O=C(O)c1cc2c(s1)CCC2`, inactive: 0.993.
Next, `CC1=CC(C)(C)N=C(Nc2nc(C)c3cc(C)cc(C)c3n2)N1`: active: 2.41.
In the case of `Fc1ccc(/C=N\c2ccc(Cl)cn2)cc1`, the “cell-surface Lgr5 expression” value is inactive: 1.2.
Take `Clc1ccc(COC(Cn2ccnc2)c2ccc(Cl)cc2Cl)c(Cl)c1` (centres undefined): the “cell-surface Lgr5 expression” value is inactive: 1.43.
Next, `NCCNc1ccc([N+](=O)[O-])c(NC2CC2)c1`: inactive: 0.91; `O=C(O)c1cnc(O)nc1O`: inactive: 1.3; `CC(C)OC(=O)CNc1n[nH]c(=S)[nH]c1=O`: inactive: 1.08.
As to `N#CC1=C(N)SC(N)=C(C#N)C1c1ccc(F)cc1F`, the “cell-surface Lgr5 expression” value is inactive: 1.29.
Next, `S=C(Nc1ccccn1)NC1CCCCC1`: inactive: 0.953; `N#CCc1ccc([NH+]2CCC([O-])=C3CCCCC32)cc1` (centres undefined): inactive: 1.
For the compound `C(=N\Nc1nnn[nH]1)/c1ccc2c(c1)OCO2`, the “cell-surface Lgr5 expression” value is inactive: 1.38.
In the case of `O=[N+]([O-])c1ccc2c(/N=N\c3ccc4ccccc4c3O)c(O)cc(S(=O)(=O)[O-])c2c1.[Na+]`, the “cell-surface Lgr5 expression” value is inactive: 1.17.
For the compound `O=C(CCCC(=O)NCCC1=CCCCC1)NCCC1=CCCCC1`, the “cell-surface Lgr5 expression” value is inactive: 0.983.
Next, `N#C/C(=C\c1ccc[nH]1)C(=O)NC1CC1`: inactive: 1.4.
On to `C/C(=N\NC(=O)c1cnccn1)c1ccco1`, for which the “cell-surface Lgr5 expression” value is inactive: 1.14.
In the case of `O=C(N/N=C/c1cccs1)c1cccs1` it was inactive: 1.19.
For `Brc1ccccc1Cn1nnc(-c2ccccc2)n1`, the “cell-surface Lgr5 expression” value is inactive: 1.11.
In the case of `Cc1cc(C)c(C(N)=O)c(=S)[nH]1` it was inactive: 1.23; in that of `O=[N+]([O-])c1cnn(CCl)c1`, inactive: 1.1; in that of `Cc1ccc(C2C(C#N)=C(N)SC(N)=C2C#N)s1`, inactive: 1.12.
Next, `CC(C)N1C/C(=C/c2cccs2)C(=O)/C(=C/c2cccs2)C1`: inactive: 0.401; `S=C(NC1CCCCC1)NC1CCCCC1`: inactive: 1.1.
As to `CCOC(C)Oc1ccc(Br)cc1` (centres undefined), the “cell-surface Lgr5 expression” value is inactive: 1.22.
Next, `Cc1ccc2ccc3ccc(C)nc3c2n1`: inactive: 0.986; `O=[N+]([O-])c1ccc(-n2cnnc2)cc1`: inactive: 1.24; `CCc1[nH]nc2c1C1(CCOC1C)C(C#N)=C(N)O2` (centres undefined): inactive: 1.02.
Next, `Cn1ncc(Br)c1C(=O)O`: inactive: 1.3.
Regarding `O=[N+]([O-])c1cc(Cl)ccc1N1CCCC1`, the “cell-surface Lgr5 expression” value is inactive: 1.25.
With `Cc1nn(C)c(-c2nc(-c3ccc(Br)o3)no2)c1Cl`, the “cell-surface Lgr5 expression” value is inactive: 1.11.
For `c1cc(CNc2csnc2-c2nnc(Nc3ccc4c(c3)OCO4)o2)ccn1`, the “cell-surface Lgr5 expression” value was inactive: 0.888.
In the case of `N#Cc1c(/N=C\c2ccco2)sc2c1CCCC2` it was inactive: 1.18; in that of `COc1ccc(S(=O)(=O)N2CCc3ccccc32)cc1`, inactive: 1.18.
With `C1CCC(=N/Nc2c(S(N3CCCCC3)(=O)=O)cc([N+]([O-])=O)cc2)/CCC1`, the “cell-surface Lgr5 expression” value was inactive: 1.05.
In the case of `O=[N+]([O-])C1(CO)COC2(OC1)C1CC3CC(C1)CC2C3` (centres undefined) it was inactive: 1.23; in that of `CCc1ccc2c(c1)C1(NN=C(c3ccc(C)cc3)S1)C(=O)N2` (centres undefined), inactive: 0.128; in that of `Clc1ccc(OCCSc2nc3ccc(Br)cc3[nH]2)cc1`, inactive: 1.18.
In the case of `O=[N+]([O-])c1ccc(-n2nnc3ccccc32)c([N+](=O)[O-])c1` it was inactive: 1.5.
As to `CC(=O)OC[C@H]1O[C@@H](n2ncc(=O)[nH]c2=O)[C@H](OC(C)=O)[C@H]1OC(C)=O`, the “cell-surface Lgr5 expression” value was inactive: 1.35.
For the compound `c1ccc(-n2nnnc2SCSc2nnnn2-c2ccccc2)cc1`, the “cell-surface Lgr5 expression” value is inactive: 1.37.
Turning to `O=c1cc(O)c2sc3nc4c(c(C(F)(F)F)c3c2[nH]1)CCCC4`, the “cell-surface Lgr5 expression” value is inactive: 1.3.
As for `CSCCC(C(=O)O)N1CNC(=S)NC1` (centres undefined), the “cell-surface Lgr5 expression” value was inactive: 1.19.
In the case of `CCCCc1[nH]nc2c1C(c1ccc(Br)s1)C(C#N)=C(N)O2` (centres undefined) it was inactive: 1.78; in that of `OCC1COc2ccccc2O1` (centres undefined), inactive: 1.2; in that of `Cc1noc(-c2nonc2N)n1`, inactive: 0.981.
Next, `CN1CCN(CC/C=C2\c3ccccc3Sc3ccc(S(=O)(=O)N(C)C)cc32)CC1`: active: 2.47.
Regarding `S=c1[nH]ccn1-c1ccc2c(c1)OCO2`, the “cell-surface Lgr5 expression” value was inactive: 1.06.
Next, `O=C(c1ccc(Br)o1)N1CCCC1`: inactive: 1.07.
Regarding `O=S(=O)(Nc1ccc(Cl)cn1)c1ccc(Br)cc1`, the “cell-surface Lgr5 expression” value was inactive: 1.14.
As to `O=S1(=O)CCN2C=C(Br)C=C(Br)C2=N1`, the “cell-surface Lgr5 expression” value was inactive: 1.4.
For the compound `Cc1nccn1C(C)CC(=O)O` (centres undefined), the “cell-surface Lgr5 expression” value is inactive: 1.54.
Next, `CCCCSc1nc2c(c(C(F)(F)F)c1C#N)CC(C)CC2` (centres undefined): inactive: 1.52; `O=C1OC(c2ccccc2Br)=N/C1=C\c1cccc2ccccc12`: inactive: 1.67; `Brc1ccc(Cn2ccc(-n3cnnn3)n2)cc1`: inactive: 1.06.
In the case of `Cn1cccc1/C=c1\sc2n(c1=O)C(N)=C(C#N)C(c1cccn1C)C=2C#N` (centres undefined), the “cell-surface Lgr5 expression” value was inactive: 1.28.
Next, `O=S(=O)(C/N=C(/NC(=S)Nc1ccccc1)c1ccccc1)c1ccccc1`: inactive: 1.45; `CC(=C\CCC1(C(N(C(O1)=O)CCC([O-])=O)(O)C)C)/C` (centres undefined): inactive: 1.05.
In the case of `CN1C(=O)/C(=c2/sc3nc4ccccc4n3c2=O)c2ccccc21` it was inactive: 1.1.
